pKi: −log10 of the molar value.
Molecular target: T1, D(4) dopamine receptor (Rattus norvegicus, UniProt P30729)
T1 sequence (P30729 whole entry): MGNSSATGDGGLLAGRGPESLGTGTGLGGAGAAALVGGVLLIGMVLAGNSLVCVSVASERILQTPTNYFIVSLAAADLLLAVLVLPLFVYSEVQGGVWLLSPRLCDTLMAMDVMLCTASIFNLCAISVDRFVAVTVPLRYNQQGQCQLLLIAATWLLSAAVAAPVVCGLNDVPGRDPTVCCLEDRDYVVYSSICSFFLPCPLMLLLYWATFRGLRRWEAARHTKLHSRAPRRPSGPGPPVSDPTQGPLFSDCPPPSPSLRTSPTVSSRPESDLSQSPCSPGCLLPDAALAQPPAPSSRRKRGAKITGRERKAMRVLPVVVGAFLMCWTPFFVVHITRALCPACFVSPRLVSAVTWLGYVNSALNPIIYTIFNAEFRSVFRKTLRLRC

- pKi: 7.92
Compound: CSc1ccc2c(c1)N(CC[C@@H]1CCCCN1C)c1ccccc1S2 [10-[2-(1-Methyl-piperidin-2-yl)-ethyl]-2-methylsulfanyl-10H-phenothiazine (thioridazine)]

Source: BindingDB's records for doi:10.1038/350610a0 (University of Toronto, 1991)
